# Measured values as given in publication PMC4729931.
# These are yes or no findings as the source states them, for the method shown. In cells and extracts the contact can be indirect. Some entries that bind do so weakly or less than the wild type. For part of these data: Where a sequence is shown, tags or fusion partners need not be part of it.
# T1: VANGL2 (human (endogenous in SUM149, SKBR7, PDX)) (UniProt Q9ULK5)
# T1 sequence: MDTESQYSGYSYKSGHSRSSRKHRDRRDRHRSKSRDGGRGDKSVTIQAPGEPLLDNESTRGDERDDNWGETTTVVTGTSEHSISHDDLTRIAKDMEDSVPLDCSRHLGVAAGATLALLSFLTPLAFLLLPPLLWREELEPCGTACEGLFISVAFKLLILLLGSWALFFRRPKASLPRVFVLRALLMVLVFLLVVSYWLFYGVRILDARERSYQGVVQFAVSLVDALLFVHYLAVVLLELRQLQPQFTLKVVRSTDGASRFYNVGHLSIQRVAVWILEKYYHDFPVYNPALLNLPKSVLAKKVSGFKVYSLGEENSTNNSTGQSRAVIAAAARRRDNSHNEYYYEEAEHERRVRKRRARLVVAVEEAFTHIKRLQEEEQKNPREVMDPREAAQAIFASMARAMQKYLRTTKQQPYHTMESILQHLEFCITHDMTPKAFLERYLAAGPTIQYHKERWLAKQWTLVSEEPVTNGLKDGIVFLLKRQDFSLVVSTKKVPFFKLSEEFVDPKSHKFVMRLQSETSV
# B1: GFP-p62^DN (domain or fragment)
# chain: VDPSTGELQSLQMPESEGPSSLDPSQEGPTGLKEAALYPHLPP
# B2: GFP–VANGL2 C-terminal 242–521 (CT), in vitro translated (domain or fragment, UniProt Q9ULK5 242-521)
# chain: LQPQFTLKVVRSTDGASRFYNVGHLSIQRVAVWILEKYYHDFPVYNPALLNLPKSVLAKKVSGFKVYSLGEENSTNNSTGQSRAVIAAAARRRDNSHNEYYYEEAEHERRVRKRRARLVVAVEEAFTHIKRLQEEEQKNPREVMDPREAAQAIFASMARAMQKYLRTTKQQPYHTMESILQHLEFCITHDMTPKAFLERYLAAGPTIQYHKERWLAKQWTLVSEEPVTNGLKDGIVFLLKRQDFSLVVSTKKVPFFKLSEEFVDPKSHKFVMRLQSETSV
# B3: p62/SQSTM1 peptide p62^346-388 (peptide)
# peptide: B1 chain
# Columns and labels:
# [1] = molecular target: T1, VANGL2 (human (endogenous in SUM149, SKBR7, PDX)); assay: co-IP; co-immunoprecipitation from SUM149 cells expressing GFP-p62^DN (Supplementary Fig. 5)
# [2] = molecular target: Glutathione S-transferase (GST)–p62/SQSTM1 (UniProt Q13501); assay: pull-down; GST or GST–p62/SQSTM1 as bait; in vitro translated GFP–VANGL2 constructs, autoradiography; only the target purified
# [3] = molecular target: T1, VANGL2 (human (endogenous in SUM149, SKBR7, PDX)); assay: co-IP; SUM149 cell protein extracts incubated with synthetic p62^DN peptide (5 to 100 μM), then immunoprecipitation of VANGL2 and western blot; the peptide against VANGL2 of the extract, read as loss of p62/SQSTM1; only the binder purified
binder,measurement,setting,value
B1,binding,[1],binds
B2,binding,[2],binds
B3,binding,[3],binds
